This is one part of the list.
compound: COc1ccc(Cn2ccc3cc(C)c(C(=O)NO)cc32)cc1; experiment: dose-dependent thermal stabilisation call (2D-TPP, DLPTP, 10% FDR) (binary (1 = stabilised)); higher = stabilised by the compound; conditions: system: HL-60 intact cells; concentration range 0.04-10 µM
Method: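 2D thermal proteome profiling in intact HL-60 cells treated with BRD-3811 (0, 0.04, 0.29, 2, 10 uM) for 90 min at 37 C, then heated 3 min at one of 12 temperatures (42-63.9 C). Soluble protein was quantified by TMT10 MS. The value is the DLPTP call of the paper: dose-dependent thermal stabilisation over all temperatures at 10% FDR (F-test of a dose-response against a flat model); one experiment, one call per tested protein.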

Amino acid sequences for entries named in this document (tags omitted). A change or cut given only in a name is not applied to a line headed by its entry.
UniProt Q15369, whole entry: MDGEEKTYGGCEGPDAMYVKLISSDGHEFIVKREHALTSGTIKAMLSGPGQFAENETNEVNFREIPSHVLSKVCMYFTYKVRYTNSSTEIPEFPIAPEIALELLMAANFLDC
UniProt Q96A49: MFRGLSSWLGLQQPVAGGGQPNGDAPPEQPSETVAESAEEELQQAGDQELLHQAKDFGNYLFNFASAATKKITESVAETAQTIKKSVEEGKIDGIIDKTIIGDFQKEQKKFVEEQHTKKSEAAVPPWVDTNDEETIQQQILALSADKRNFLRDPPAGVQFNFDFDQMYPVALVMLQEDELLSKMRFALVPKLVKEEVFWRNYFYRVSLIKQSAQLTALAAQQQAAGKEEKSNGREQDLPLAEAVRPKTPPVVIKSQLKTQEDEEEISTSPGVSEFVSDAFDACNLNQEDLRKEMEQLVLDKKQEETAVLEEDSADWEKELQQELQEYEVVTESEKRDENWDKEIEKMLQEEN
UniProt Q92734, whole entry: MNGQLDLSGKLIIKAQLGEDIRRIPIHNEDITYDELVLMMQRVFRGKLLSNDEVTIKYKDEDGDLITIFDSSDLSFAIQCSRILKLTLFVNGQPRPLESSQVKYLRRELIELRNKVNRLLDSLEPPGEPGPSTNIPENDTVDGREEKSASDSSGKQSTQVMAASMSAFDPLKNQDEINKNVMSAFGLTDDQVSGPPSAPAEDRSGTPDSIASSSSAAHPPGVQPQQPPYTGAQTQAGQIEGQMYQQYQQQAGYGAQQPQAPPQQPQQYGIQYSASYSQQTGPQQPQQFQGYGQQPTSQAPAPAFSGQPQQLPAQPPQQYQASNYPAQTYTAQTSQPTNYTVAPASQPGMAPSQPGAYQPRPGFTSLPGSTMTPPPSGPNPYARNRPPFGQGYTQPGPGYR
UniProt Q03518, whole entry: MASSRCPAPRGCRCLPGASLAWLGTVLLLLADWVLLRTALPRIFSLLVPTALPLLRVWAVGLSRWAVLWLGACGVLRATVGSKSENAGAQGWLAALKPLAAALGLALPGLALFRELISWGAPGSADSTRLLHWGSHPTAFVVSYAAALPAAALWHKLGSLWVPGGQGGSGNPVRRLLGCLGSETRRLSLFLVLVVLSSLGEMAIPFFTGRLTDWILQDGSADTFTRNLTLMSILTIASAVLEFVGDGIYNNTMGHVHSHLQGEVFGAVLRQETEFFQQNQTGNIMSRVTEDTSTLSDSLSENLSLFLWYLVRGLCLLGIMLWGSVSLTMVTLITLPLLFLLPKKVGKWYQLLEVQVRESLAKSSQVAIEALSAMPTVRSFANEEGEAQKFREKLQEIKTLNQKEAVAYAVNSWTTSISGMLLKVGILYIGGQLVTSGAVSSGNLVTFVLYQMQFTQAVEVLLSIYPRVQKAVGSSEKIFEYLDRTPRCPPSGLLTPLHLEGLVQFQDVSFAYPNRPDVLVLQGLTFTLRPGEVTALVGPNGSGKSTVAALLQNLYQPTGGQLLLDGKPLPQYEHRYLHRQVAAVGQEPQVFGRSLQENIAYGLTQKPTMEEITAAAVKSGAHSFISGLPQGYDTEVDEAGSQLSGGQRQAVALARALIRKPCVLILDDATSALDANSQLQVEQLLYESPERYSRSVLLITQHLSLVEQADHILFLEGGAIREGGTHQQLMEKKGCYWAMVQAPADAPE
UniProt P42229: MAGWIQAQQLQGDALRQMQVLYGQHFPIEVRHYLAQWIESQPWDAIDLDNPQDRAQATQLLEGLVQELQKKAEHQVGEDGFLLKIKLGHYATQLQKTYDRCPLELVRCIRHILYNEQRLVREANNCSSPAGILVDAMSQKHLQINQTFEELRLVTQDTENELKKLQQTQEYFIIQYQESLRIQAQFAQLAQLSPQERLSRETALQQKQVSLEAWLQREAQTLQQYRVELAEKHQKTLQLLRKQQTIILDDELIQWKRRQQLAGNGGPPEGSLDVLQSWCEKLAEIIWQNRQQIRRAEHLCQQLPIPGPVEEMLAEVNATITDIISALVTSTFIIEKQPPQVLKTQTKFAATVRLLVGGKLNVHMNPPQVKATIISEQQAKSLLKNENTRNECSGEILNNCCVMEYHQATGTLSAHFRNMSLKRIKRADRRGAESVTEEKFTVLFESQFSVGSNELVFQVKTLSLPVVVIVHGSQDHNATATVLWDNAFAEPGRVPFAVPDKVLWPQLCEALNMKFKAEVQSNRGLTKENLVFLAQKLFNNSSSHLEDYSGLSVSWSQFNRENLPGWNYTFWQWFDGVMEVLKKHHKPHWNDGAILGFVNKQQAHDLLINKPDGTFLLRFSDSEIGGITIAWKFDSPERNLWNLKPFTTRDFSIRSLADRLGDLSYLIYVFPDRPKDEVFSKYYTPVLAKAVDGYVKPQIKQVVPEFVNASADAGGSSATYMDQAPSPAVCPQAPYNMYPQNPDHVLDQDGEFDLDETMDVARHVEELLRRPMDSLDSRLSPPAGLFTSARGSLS
UniProt P42224: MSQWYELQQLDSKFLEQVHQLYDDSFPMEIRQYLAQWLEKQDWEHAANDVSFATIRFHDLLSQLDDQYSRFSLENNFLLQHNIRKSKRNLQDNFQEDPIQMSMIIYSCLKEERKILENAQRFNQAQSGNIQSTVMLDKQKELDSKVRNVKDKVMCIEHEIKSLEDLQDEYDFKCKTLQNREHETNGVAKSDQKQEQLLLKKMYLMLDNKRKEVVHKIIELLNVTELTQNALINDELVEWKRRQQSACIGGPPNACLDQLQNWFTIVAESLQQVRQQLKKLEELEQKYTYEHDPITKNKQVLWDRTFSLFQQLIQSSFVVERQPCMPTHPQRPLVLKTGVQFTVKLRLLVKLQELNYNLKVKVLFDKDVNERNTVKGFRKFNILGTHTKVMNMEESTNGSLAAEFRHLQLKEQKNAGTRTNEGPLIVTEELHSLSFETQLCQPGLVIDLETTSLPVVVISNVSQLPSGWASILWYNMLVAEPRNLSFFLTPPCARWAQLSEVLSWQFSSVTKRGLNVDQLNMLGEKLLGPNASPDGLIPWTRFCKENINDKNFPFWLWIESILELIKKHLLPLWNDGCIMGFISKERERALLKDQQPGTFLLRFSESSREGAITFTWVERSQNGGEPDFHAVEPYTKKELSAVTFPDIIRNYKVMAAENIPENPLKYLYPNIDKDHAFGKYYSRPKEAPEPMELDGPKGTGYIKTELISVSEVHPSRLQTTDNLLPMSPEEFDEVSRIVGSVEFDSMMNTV
UniProt P51692: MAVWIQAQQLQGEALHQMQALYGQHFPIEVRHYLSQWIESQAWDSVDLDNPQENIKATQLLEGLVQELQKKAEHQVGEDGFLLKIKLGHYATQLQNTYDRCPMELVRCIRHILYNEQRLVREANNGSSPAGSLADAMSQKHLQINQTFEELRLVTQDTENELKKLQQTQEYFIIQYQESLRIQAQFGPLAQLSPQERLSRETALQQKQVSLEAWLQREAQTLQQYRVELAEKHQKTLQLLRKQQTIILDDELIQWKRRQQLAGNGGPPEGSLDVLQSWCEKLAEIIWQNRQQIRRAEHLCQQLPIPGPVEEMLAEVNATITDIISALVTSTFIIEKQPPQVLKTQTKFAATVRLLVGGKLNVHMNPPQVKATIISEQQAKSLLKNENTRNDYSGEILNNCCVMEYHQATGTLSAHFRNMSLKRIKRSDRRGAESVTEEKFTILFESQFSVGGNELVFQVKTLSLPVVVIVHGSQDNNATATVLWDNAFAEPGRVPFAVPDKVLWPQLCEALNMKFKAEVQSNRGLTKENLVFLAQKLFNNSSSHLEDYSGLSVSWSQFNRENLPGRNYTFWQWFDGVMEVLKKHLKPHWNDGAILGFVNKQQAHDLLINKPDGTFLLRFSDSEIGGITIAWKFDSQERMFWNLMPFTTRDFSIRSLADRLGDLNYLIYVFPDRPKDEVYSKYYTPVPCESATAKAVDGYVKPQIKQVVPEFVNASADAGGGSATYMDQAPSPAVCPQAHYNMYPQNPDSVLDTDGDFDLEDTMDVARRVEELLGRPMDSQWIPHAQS
UniProt O75410: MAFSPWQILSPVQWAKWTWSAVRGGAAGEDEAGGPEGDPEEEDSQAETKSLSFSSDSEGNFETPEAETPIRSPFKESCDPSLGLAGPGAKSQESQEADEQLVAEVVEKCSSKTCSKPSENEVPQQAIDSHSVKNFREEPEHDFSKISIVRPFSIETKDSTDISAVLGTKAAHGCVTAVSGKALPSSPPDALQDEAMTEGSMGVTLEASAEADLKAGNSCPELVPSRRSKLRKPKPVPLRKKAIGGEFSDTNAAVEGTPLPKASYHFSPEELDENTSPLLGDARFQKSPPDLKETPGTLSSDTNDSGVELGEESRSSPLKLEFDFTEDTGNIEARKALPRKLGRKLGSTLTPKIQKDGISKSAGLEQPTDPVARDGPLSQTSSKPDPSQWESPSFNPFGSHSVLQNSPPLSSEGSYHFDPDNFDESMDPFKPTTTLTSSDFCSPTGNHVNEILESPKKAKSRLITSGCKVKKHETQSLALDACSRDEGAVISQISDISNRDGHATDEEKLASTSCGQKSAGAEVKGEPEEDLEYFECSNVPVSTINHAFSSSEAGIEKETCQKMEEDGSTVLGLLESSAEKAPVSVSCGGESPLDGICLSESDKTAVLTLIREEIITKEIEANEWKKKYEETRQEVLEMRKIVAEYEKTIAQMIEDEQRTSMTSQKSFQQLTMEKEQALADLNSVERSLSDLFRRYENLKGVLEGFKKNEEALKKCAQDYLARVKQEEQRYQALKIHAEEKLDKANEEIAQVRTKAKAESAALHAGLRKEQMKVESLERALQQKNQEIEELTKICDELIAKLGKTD
UniProt Q15005: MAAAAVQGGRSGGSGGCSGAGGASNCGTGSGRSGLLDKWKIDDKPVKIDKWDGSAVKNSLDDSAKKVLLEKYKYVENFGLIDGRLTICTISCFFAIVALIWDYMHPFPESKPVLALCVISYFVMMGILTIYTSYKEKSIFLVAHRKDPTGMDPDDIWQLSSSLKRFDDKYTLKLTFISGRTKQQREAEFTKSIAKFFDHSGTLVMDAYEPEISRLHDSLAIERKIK
UniProt Q9UL54: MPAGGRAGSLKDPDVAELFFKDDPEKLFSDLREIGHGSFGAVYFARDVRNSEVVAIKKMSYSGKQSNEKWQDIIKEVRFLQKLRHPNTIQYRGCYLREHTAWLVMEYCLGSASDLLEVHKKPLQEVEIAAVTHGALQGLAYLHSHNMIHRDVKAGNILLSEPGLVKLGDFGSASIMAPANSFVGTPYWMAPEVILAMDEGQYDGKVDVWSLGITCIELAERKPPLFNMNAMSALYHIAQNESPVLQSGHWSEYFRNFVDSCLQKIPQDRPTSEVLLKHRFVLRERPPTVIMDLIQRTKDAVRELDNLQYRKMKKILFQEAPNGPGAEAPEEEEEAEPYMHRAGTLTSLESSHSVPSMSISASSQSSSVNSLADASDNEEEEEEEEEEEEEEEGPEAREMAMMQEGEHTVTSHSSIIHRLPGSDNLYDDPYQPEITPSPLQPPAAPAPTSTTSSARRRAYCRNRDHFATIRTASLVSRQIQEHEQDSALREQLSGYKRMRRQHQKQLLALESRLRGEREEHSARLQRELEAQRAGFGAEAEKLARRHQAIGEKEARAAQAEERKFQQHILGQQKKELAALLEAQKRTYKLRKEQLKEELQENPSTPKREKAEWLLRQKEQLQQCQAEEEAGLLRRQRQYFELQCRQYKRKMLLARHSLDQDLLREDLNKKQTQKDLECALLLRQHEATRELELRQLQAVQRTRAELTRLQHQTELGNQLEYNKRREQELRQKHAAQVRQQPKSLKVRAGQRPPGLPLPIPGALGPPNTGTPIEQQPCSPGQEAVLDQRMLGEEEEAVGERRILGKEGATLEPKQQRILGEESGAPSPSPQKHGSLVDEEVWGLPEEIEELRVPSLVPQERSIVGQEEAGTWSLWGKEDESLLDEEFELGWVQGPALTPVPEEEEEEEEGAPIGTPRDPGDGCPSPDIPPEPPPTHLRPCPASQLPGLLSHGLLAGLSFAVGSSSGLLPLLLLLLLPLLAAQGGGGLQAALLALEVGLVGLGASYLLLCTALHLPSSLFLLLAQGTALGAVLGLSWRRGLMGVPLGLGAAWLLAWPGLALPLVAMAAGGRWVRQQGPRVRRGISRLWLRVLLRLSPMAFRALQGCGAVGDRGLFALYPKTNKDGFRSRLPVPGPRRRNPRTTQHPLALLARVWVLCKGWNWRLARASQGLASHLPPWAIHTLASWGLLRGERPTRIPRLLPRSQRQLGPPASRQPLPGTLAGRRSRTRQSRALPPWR
UniProt P43307: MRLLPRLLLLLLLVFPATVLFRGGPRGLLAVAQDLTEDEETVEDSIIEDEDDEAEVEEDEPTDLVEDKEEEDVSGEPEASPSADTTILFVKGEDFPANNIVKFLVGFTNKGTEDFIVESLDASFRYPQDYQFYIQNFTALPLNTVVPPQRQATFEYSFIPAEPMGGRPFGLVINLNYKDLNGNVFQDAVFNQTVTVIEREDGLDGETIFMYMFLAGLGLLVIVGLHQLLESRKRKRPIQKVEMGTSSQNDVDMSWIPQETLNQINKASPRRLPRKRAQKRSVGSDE

Target | dose-dependent thermal stabilisation call
TCOF1 (UniProt Q13428) | inactive: 0
TBL2 (UniProt Q9Y4P3) | inactive: 0
STXBP5 (UniProt Q5T5C0) | inactive: 0
STX6 (UniProt O43752) | inactive: 0
SPPL2B (UniProt Q8TCT7) | inactive: 0
TCEB1 (UniProt Q15369) | inactive: 0
SYAP1 (UniProt Q96A49) | inactive: 0
TFG (UniProt Q92734) | inactive: 0
TBC1D20 (UniProt Q96BZ9) | inactive: 0
SYNCRIP (UniProt O60506) | inactive: 0
TAP1 (UniProt Q03518) | inactive: 0
SUMF2 (UniProt Q8NBJ7) | inactive: 0
TATDN3 (UniProt Q17R31) | inactive: 0
SUCLG2 (UniProt Q96I99) | inactive: 0
SURF6 (UniProt O75683) | inactive: 0
STAT5A (UniProt P42229) | inactive: 0
STAT1 (UniProt P42224) | inactive: 0
TCEA1 (UniProt P23193) | inactive: 0

Laid out differently: results already given
Target	dose-dependent thermal stabilisation call
SYNCRIP (UniProt O60506)	inactive: 0
STAT1 (UniProt P42224)	inactive: 0

Following part

Target | dose-dependent thermal stabilisation call
ST8SIA4 (UniProt Q92187) | inactive: 0
SYK (UniProt P43405) | inactive: 0
STAT5B (UniProt P51692) | inactive: 0
TACC1 (UniProt O75410) | inactive: 0
TADA3L (UniProt O75528) | inactive: 0
STRN (UniProt O43815) | inactive: 0
TCERG1 (UniProt O14776) | inactive: 0
SPCS2 (UniProt Q15005) | inactive: 0
STMN3 (UniProt Q9NZ72) | inactive: 0
STRN4 (UniProt Q9NRL3) | inactive: 0
TAOK2 (UniProt Q9UL54) | inactive: 0
TDRKH (UniProt Q9Y2W6) | inactive: 0
SSR1 (UniProt P43307) | inactive: 0
SYMPK (UniProt Q92797) | inactive: 0
TCP1 (UniProt P17987) | inactive: 0
SPAST (UniProt Q9UBP0) | inactive: 0
TBL1XR1 (UniProt Q9BZK7) | inactive: 0
